According to patent US20060257410A1 (CHEMOCENTRYX, published 2006):
Results are given in words; binding and its absence hold for the method and conditions named. Some binding calls cover weakened binding; strength is not graded here.

Amino acid sequences for entries named in this document (tags omitted).
UniProt P25106: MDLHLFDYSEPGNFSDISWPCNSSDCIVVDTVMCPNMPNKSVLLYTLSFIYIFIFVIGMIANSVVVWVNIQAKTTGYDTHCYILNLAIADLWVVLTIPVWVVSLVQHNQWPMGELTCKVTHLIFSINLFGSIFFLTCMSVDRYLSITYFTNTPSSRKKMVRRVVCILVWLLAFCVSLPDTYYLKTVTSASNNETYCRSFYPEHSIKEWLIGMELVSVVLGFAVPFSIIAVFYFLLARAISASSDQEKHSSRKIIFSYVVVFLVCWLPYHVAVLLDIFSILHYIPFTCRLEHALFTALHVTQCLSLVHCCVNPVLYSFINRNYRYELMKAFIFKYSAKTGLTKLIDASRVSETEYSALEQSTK

Tests used:
human CCX-CKR2 (human) [1] = target: human CCX-CKR2 (human) (UniProt P25106); test: immunohistochemical staining of cytospins
human CCX-CKR2 (human) [2] = target: human CCX-CKR2 (human) (UniProt P25106); test: radioligand competitive binding assay; competitors SDF-1 and I-TAC
human CCX-CKR2 (human) [3] = target: human CCX-CKR2 (human) (UniProt P25106); test: flow cytometry on transfectant cell lines and on HeLa and MCF-7 cells
human CCX-CKR2 (human) [4] = target: human CCX-CKR2 (human) (UniProt P25106); test: radioligand competitive binding assay; competitors SDF-1 and I-TAC; 11G8 typically exhibited a greater percentage inhibition than 6E10

Measured: binding

B1: monoclonal antibody 6E10 (antibody, V domains shown)
VH: EVKLDETGGGLVQPGRPMKLSCVASGFTFSDYWMNWVRQSPEKGLEWVGQIRNKPYNYETYYSDSVKGRFTISRDDSKSSVYLQMNNLRTEDTGIYYCTSLRYWGQGTLVTVSA
VL: DIVMTQSPSSLTVTAGEKVTMSCKSSHSLLNSGIQKNFLTWYQQKPGQPPKVLIYWAFTRESGVPERFTGSGSGTDFTLTISSVQAEDLAVYYCQSDYTYPFTFGSGTKLEIKR
notes: Mouse hybridoma monoclonal antibody raised by gene gun inoculation with CCX-CKR2 cDNA
binds: human CCX-CKR2 (human) [1] | human CCX-CKR2 (human) [2] | human CCX-CKR2 (human) [3]

B2: monoclonal antibody 11G8 (antibody, V domains shown)
VH: EVKLVESGGDLVQPGGSLKLSCATSGFTFSDYYMFWVRQTPEKRLEWVAYITNGGDRSYYSDTVTGRFIISRDNAKNTLYLQMSRLKSEDTAMYYCARQGNWAAWFVYWGQGTLVTVSA
VL: DVLMTQTPLSLPVSLGDQASISCRSSHYIVHSDGNTYLEWYLQKPGQSPKLLIYKVSNRFSGVPDRFSGSGSGTDFTLKISRVEAEDLGIYYCFQGSHVPLTFGAGTKLELKR
notes: as for B1
binds: human CCX-CKR2 (human) [1] | human CCX-CKR2 (human) [3] | human CCX-CKR2 (human) [4]
